Patent US20060129225A1, “Device for the delivery of a cardioprotective agent to ischemic reperfused myocardium” (priority 2004, published 2006)

Assay: Liquid formulations of sirolimus with PEG 200, ethanol and water (liquid chromatography)
Assay type: physicochemical
Conditions: 4 mg/ml PEG 200 formulation
Source text: In accordance with exemplary embodiments of the present invention, a series of liquid formulations were developed for the local or regional delivery of water insoluble compounds such as sirolimus and its analogs, including CCI-779, ABT-578 and everolimus, through weeping balloons and catheter injection needles. […] These liquid formulations increase the apparent solubility of the pharmacologically active but water insoluble compounds by two to four orders of magnitude as compared to the solubility limits of the compounds in water. These liquid formulations rely on the use of a very small amount of organic solvents such as Ethanol (typically less than two percent) and a larger amount of safe amphiphilic (of or relating to a molecule having a polar, water soluble group attached to a non-polar, water insoluble […]) excipients such as polyethylene glycol (PEG 200, PEG 400) and vitamin E TPGS to enhance the solubility of the compounds. These liquid formulations of highly water insoluble compounds are stable and readily flowable at room temperature. […]
Table 8, shown below, summarizes the concentrations of the excipient, the co-solvents and the drug for four different liquid formulations in accordance with exemplary embodiments of the present invention. The concentrations of each constituent were determined by liquid chromatography and are presented as weight by volume figures. […]

CO[C@H]1C[C@@H]2CC[C@@H](C)[C@@](O)(O2)C(=O)C(=O)N2CCCC[C@H]2C(=O)O[C@H]([C@H](C)C[C@@H]2CC[C@@H](O)[C@H](OC)C2)CC(=O)[C@H](C)/C=C(\C)[C@@H](O)[C@@H](OC)C(=O)[C@H](C)C[C@H](C)/C=C/C=C/C=C/1C [rapamycin]
concentration relative to the solubility of sirolimus in water: four hundred to about one thousand
